PubChem BioAssay AID1259254 | NCATS, 2017

Aim: 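Gene knock-downs that lead to re-replication, shown by excess G2 DNA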 (primary screen)
Cells: human HCT116 colorectal cancer cells
Knock-down reagent: single siRNA against human genes
Time to read-out: 3 days
Detection: 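Nuclei stained with Hoechst and imaged; cell-cycle phase assigned by DNA content; G2 share scaled per plate, non-targeting siRNA 0%, GMNN siRNA 100%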
Reading the numbers: G2 robust z-score: higher = more G2 cells, more excess DNA replication
Rule for the call: 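An siRNA counts as active if its G2 robust z-score lies at least 5 MADs above the screen median; here such calls match roughly 38% of GMNN control or more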
The deposit covers about 59,000 reagents; below is a part drawn at random. About 1,550 of all reagents (2.6%) count as active. 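G2 share is only a proxy for re-replication; each gene was hit by three separate siRNAs, and active genes were retested.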 Reagents against one gene are numbered here. Not all columns of the deposit are shown. No sequences are given here. Not stated in the record: the amount of reagent.

gene symbol | reagent | G2 robust z-score | Outcome
EFCAB14 (GeneID 9813) | 1 | -0.428 | inactive
EFCAB14 (GeneID 9813) | 2 | 2.67 | inactive
EFCAB14 (GeneID 9813) | 3 | 3.17 | inactive
GUCY2D (GeneID 3000) | 1 | 0.456 | inactive
GUCY2D (GeneID 3000) | 2 | -0.205 | inactive
GUCY2D (GeneID 3000) | 3 | -0.888 | inactive
ACTRT3 (GeneID 84517) | 1 | 2.28 | inactive
ACTRT3 (GeneID 84517) | 2 | -0.0429 | inactive
ACTRT3 (GeneID 84517) | 3 | 0.314 | inactive
CASP2 (GeneID 835) | 1 | 3.03 | inactive
CASP2 (GeneID 835) | 2 | -0.17 | inactive
CASP2 (GeneID 835) | 3 | -0.991 | inactive
SQOR (GeneID 58472) | 1 | 2.71 | inactive
SQOR (GeneID 58472) | 2 | -1.2 | inactive
SQOR (GeneID 58472) | 3 | -0.192 | inactive
ONECUT3 (GeneID 390874) | 1 | -0.617 | inactive
ONECUT3 (GeneID 390874) | 2 | 0.413 | inactive
ONECUT3 (GeneID 390874) | 3 | 2.09 | inactive
CXCL12 (GeneID 6387) | 1 | 0.1 | inactive
CXCL12 (GeneID 6387) | 2 | -0.976 | inactive
CXCL12 (GeneID 6387) | 3 | 0.835 | inactive
HACD2 (GeneID 201562) | 1 | -0.384 | inactive
HACD2 (GeneID 201562) | 2 | -0.589 | inactive
HACD2 (GeneID 201562) | 3 | -0.754 | inactive
MTAP (GeneID 4507) | 1 | -0.0431 | inactive
MTAP (GeneID 4507) | 2 | -0.291 | inactive
MTAP (GeneID 4507) | 3 | -0.388 | inactive

A portion from the list above, for reference:
gene symbol | reagent | G2 robust z-score | Outcome
CASP2 (GeneID 835) | 2 | -0.17 | inactive
CASP2 (GeneID 835) | 3 | -0.991 | inactive
SQOR (GeneID 58472) | 1 | 2.71 | inactive
SQOR (GeneID 58472) | 2 | -1.2 | inactive
SQOR (GeneID 58472) | 3 | -0.192 | inactive
ONECUT3 (GeneID 390874) | 1 | -0.617 | inactive
ONECUT3 (GeneID 390874) | 2 | 0.413 | inactive

More records:
gene symbol | reagent | G2 robust z-score | Outcome
FAM181B (GeneID 220382) | 1 | -0.209 | inactive
FAM181B (GeneID 220382) | 2 | -0.57 | inactive
FAM181B (GeneID 220382) | 3 | 0.794 | inactive
JPH1 (GeneID 56704) | 1 | -1.07 | inactive
JPH1 (GeneID 56704) | 2 | 1.78 | inactive
JPH1 (GeneID 56704) | 3 | 0.29 | inactive
HES4 (GeneID 57801) | 1 | 0.301 | inactive
HES4 (GeneID 57801) | 2 | -1.09 | inactive
HES4 (GeneID 57801) | 3 | -1.09 | inactive
RMDN1 (GeneID 51115) | 1 | -0.438 | inactive
RMDN1 (GeneID 51115) | 2 | 7.12 | active
RMDN1 (GeneID 51115) | 3 | 0.524 | inactive
DEPDC1 (GeneID 55635) | 1 | -0.128 | inactive
DEPDC1 (GeneID 55635) | 2 | 4.07 | inactive
DEPDC1 (GeneID 55635) | 3 | 1.02 | inactive
MARCHF9 (GeneID 92979) | 1 | -1.06 | inactive
MARCHF9 (GeneID 92979) | 2 | -0.294 | inactive
MARCHF9 (GeneID 92979) | 3 | -0.126 | inactive
TLL1 (GeneID 7092) | 1 | -1.06 | inactive
TLL1 (GeneID 7092) | 2 | -0.405 | inactive
TLL1 (GeneID 7092) | 3 | 0.915 | inactive
